Results are given in words; binding and its absence hold for the method and conditions named.
Key:
[1] = molecular target: recombinant His-tagged VWF-A3 domain (amino acids S1671-G1874) (human) (UniProt P04275); assay: SPR; Biacore 3000, 25 C; VWF-A2 (1000 RU) or VWF-A3 (800 RU) immobilised; fH 40 to 640 nM, 20 uL/min; for VWF-A2 responses at equilibrium fitted to a one-site binding isotherm; both purified
[2] = molecular target: plasma purified human factor H (human) (UniProt P08603); assay: ELISA; plasma-purified fH (30 nM) coated on the plate; VWF-A1, -A2, -A3 (200 nM each) or VWF (5 ug/ml) incubated 2 h at room temperature, in some experiments with ristocetin (0.5 mg/ml); detected by anti-His or anti-VWF; both purified
[3] = molecular target: plasma purified human factor H (human) (UniProt P08603); assay: co-IP; plasma-purified fH (30 nM) incubated with His-tagged VWF-A1, -A2 (E. coli or HEK 293), -A3 or Myc-tagged VWF-BC (100 nM); precipitated with anti-fH antibody or IgG; blot anti-VWF; both purified
[4] = molecular target: ovalbumin (UniProt P01012); assay: SPR; Biacore; F1, F2, F3 or F4 at 10 ug/ml injected for 60 s over immobilised VWF-A2, VWF or ovalbumin (negative control), dissociation 2 min; both purified
[5] = molecular target: GST-VWF-A2 fusion protein (amino acids P1480-G1672) (human) (UniProt P04275); assay: pull-down; GST-VWF-A2 (100 nM) incubated with recombinant F4, F3, F2 or F1 (30 nM each); glutathione agarose beads, overnight 4 C; blot polyclonal or monoclonal (90X) anti-fH; both purified

Sequences of proteins named here, by UniProt entry; tags and fusion partners are left off. A change or cut given only in a name is not applied to a line headed by its entry. A line that says so, or that is headed by a name, gives the form on record, which may keep a tag or linker. Residues count along the entry.
GST-VWF-A2 fusion protein (amino acids P1480-G1672) (P04275, residues 1480-1672): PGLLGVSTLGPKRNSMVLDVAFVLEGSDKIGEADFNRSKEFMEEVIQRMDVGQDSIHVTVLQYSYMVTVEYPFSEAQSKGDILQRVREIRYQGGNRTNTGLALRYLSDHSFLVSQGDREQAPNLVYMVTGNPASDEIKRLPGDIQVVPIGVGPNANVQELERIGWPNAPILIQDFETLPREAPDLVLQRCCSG
recombinant His-tagged VWF-A3 domain (amino acids S1671-G1874) (P04275, residues 1671-1874): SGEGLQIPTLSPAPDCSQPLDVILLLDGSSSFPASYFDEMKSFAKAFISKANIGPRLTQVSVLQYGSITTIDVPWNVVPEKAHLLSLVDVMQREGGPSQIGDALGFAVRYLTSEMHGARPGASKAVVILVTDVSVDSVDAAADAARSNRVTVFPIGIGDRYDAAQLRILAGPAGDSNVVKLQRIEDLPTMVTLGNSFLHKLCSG
UniProt P08603: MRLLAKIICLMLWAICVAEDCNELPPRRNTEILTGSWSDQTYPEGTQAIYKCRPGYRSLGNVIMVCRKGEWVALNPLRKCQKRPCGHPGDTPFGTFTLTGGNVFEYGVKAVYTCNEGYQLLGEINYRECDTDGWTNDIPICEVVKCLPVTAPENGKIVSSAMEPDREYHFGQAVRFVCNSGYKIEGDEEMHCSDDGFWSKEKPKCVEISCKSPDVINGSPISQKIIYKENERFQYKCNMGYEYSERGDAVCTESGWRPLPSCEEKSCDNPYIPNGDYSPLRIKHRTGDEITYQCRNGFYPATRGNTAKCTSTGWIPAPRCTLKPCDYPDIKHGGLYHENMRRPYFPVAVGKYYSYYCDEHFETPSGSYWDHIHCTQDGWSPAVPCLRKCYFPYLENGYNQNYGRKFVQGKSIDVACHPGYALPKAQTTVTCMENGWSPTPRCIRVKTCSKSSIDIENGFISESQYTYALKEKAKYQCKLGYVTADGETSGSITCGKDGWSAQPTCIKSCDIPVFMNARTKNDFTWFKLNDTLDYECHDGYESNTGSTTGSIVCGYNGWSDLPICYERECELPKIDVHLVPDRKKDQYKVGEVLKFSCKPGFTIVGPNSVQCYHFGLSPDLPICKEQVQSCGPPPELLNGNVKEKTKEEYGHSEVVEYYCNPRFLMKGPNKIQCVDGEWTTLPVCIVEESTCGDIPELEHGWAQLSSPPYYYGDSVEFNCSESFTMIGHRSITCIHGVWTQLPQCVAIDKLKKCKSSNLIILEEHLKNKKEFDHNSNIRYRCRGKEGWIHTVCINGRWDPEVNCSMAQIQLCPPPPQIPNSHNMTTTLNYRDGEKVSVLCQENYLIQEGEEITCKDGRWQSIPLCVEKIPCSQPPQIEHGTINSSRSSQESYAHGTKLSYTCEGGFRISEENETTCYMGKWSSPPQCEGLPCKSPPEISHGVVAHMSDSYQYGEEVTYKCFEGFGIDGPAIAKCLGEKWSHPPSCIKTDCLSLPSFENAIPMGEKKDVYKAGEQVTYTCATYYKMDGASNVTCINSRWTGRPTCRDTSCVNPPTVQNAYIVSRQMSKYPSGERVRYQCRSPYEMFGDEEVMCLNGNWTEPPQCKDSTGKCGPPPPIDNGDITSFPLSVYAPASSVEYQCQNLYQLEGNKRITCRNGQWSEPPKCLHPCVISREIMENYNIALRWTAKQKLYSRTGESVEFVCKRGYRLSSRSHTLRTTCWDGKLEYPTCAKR

Substance	binding [4]	other results
plasma purified human factor H (from UniProt P08603 19-1231)	–	binding [1]: no binding (tested: 640 nM)
recombinant His-tagged VWF-A3 domain (amino acids S1671-G1874) (from UniProt P04275 1671-1874) (domain or fragment)	–	binding [2]: no binding (tested: 200 nM); binding [3]: no binding (tested: 100 nM)
recombinant full-length wild type human fH (F4 with SCRs 1-20, amino acids M1-R1231) (from UniProt P08603 19-1231)	no binding	–
truncated fH F1 with SCRs 1-5, amino acids M1-K323 (from UniProt P08603 19-323) (domain or fragment)	no binding	binding [5]: no binding (tested: 30 nM)
truncated fH F2 with SCRs 1-10, amino acids M1-E625 (from UniProt P08603 19-625) (domain or fragment)	no binding	–
truncated fH F3 with SCRs 1-15, amino acids M1-G928 (from UniProt P08603 19-928) (domain or fragment)	no binding	–

Source: paper PMC3753316
